A short description of this data set: In vivo pharmacokinetics and brain partition study. The following applies: rat, brain/plasma; rats, fasted, single 1 mg/kg iv dose, at 1 and 4 hours; read-out: brain/plasma ratio. On the procedure: single 1 mg/kg iv dose administered in rats under fasted conditions plasma concentrations determined at 10 time points (2 mins -24 hrs) brain partition ratio determined at 1 and 4 hours

Where only a bound is given, the exact number is not on record here.

Turning to `CN1CC[C@]23c4c5ccc(O)c4O[C@H]2[C@@H](O)C=C[C@H]3[C@H]1C5` [morphine, reference compound], the Kp at 4 h was at most 1.

The values above are taken from patent US20120149900A1, “FLUORINE CONTAINING COMPOUNDS AND METHODS OF USE THEREOF” (priority 2009, published 2012).
